Assay results reported in the supplement of paper PMC12425257.
± gives the standard deviation of the averaged measurements. Some of the results follow.

Tested on: Madurella mycetomatis MM55
Experiment: metabolic activity (growth) relative to DMSO growth control; higher = more fungal growth

C=CC(=O)Nc1cc(-c2nn(C3CCC(N4CCN(C(C)=O)CC4)CC3)c3ncnc(N)c23)ccc1Oc1ccccc1 (stereo unspecified)
metabolic activity (1 µM): 120 ± 8.2%
metabolic activity (2 µM): 129 ± 49%
metabolic activity (10 µM): 132 ± 6.4%

OCC1OC(n2cnc3cc(Cl)c(Cl)cc32)C(O)C1O (stereo unspecified)
metabolic activity (1 µM): 75.9 ± 13%
metabolic activity (2 µM): 95.6 ± 3.1%
metabolic activity (10 µM): 93.5 ± 18%
